According to the supplement of paper PMC7661543:
Differences between knockout arms are mostly noise.

System: BT-20
Experiment: relative cell number vs DMSO control (72 h) (% of DMSO); higher = less growth inhibition (more cells)
Experimental: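 QMAP-Seq: a pool of 5 breast cancer cell lines (ZR-75-1, SKBR3, HCC-38, MDA-MB-231, BT-20), each carrying 12 doxycycline-inducible Cas9 sgRNA perturbations (11 knockouts plus non-targeting sgNT), was treated with compounds for 72 h at four 10-fold doses (10 nM-10 uM or 1 nM-1 uM range). Barcodes were amplified and sequenced, and cell number was interpolated from 293T spike-in standard curves. The result is expressed as % of the median of DMSO wells. Two biological replicates.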

C[C@@H]1CN(CC(=O)Nc2ccc3c(c2)Cc2cccc(-c4cc(=O)cc(N5CCOCC5)o4)c2S3)C[C@H](C)O1
Conditions | relative cell number
sgRNA knockout: sgATF3, 10 nM | 89.4
sgRNA knockout: sgATF3, 100 nM | 102
sgRNA knockout: sgATF3, 1000 nM | 88.1
sgRNA knockout: sgATF3, 10000 nM | 53.3
sgRNA knockout: sgATF4, 10 nM | 94.6
sgRNA knockout: sgATF4, 100 nM | 84.954
sgRNA knockout: sgATF4, 1000 nM | 88.88
sgRNA knockout: sgATF4, 10000 nM | 55.6
sgRNA knockout: sgATF6, 10 nM | 84.6
sgRNA knockout: sgATF6, 100 nM | 101
sgRNA knockout: sgATF6, 1000 nM | 82.6
sgRNA knockout: sgATF6, 10000 nM | 52.6
sgRNA knockout: sgATG7, 10 nM | 91.5
sgRNA knockout: sgATG7, 100 nM | 98
sgRNA knockout: sgATG7, 1000 nM | 95.8
sgRNA knockout: sgATG7, 10000 nM | 49
sgRNA knockout: sgERN1, 10 nM | 96.3
sgRNA knockout: sgERN1, 100 nM | 110
sgRNA knockout: sgERN1, 1000 nM | 83.96
sgRNA knockout: sgERN1, 10000 nM | 58.6
sgRNA knockout: sgHSF1, 10 nM | 103
sgRNA knockout: sgHSF1, 100 nM | 87.8
sgRNA knockout: sgHSF1, 1000 nM | 87.7
sgRNA knockout: sgHSF1, 10000 nM | 58.7
sgRNA knockout: sgHSF2, 10 nM | 88.7
sgRNA knockout: sgHSF2, 100 nM | 81.9
sgRNA knockout: sgHSF2, 1000 nM | 101
sgRNA knockout: sgHSF2, 10000 nM | 50.6
sgRNA knockout: sgKEAP1, 10 nM | 94.8
sgRNA knockout: sgKEAP1, 100 nM | 98.6
sgRNA knockout: sgKEAP1, 1000 nM | 87.9
sgRNA knockout: sgKEAP1, 10000 nM | 57.9
sgRNA knockout: sgNFE2L2, 10 nM | 108
sgRNA knockout: sgNFE2L2, 100 nM | 92.5
sgRNA knockout: sgNFE2L2, 1000 nM | 102
sgRNA knockout: sgNFE2L2, 10000 nM | 52.6
sgRNA knockout: sgSLC35F2, 10 nM | 92.1
sgRNA knockout: sgSLC35F2, 100 nM | 114
sgRNA knockout: sgSLC35F2, 1000 nM | 94
sgRNA knockout: sgSLC35F2, 10000 nM | 68
sgRNA knockout: sgXBP1, 10 nM | 104
sgRNA knockout: sgXBP1, 100 nM | 95.13
sgRNA knockout: sgXBP1, 1000 nM | 93.2
sgRNA knockout: sgXBP1, 10000 nM | 68.8

Cc1[nH]c(/C=C2\C(=O)Nc3ccc(S(=O)(=O)N(C)c4cccc(Cl)c4)cc32)c(C)c1C(=O)N1CCN(C)CC1
Conditions | relative cell number
sgRNA knockout: sgATF3, 10 nM | 94.9
sgRNA knockout: sgATF3, 100 nM | 92.5
sgRNA knockout: sgATF3, 1000 nM | 86.7
sgRNA knockout: sgATF3, 10000 nM | 66.5
sgRNA knockout: sgATF4, 10 nM | 100.1
sgRNA knockout: sgATF4, 100 nM | 117
sgRNA knockout: sgATF4, 1000 nM | 86.9
sgRNA knockout: sgATF4, 10000 nM | 62.9
sgRNA knockout: sgATF6, 10 nM | 104
sgRNA knockout: sgATF6, 100 nM | 79.2
sgRNA knockout: sgATF6, 1000 nM | 72.7
sgRNA knockout: sgATF6, 10000 nM | 56.8
sgRNA knockout: sgATG7, 10 nM | 87.8
sgRNA knockout: sgATG7, 100 nM | 97.6
sgRNA knockout: sgATG7, 1000 nM | 76.3
sgRNA knockout: sgATG7, 10000 nM | 51.8
sgRNA knockout: sgERN1, 10 nM | 105
sgRNA knockout: sgERN1, 100 nM | 94
sgRNA knockout: sgERN1, 1000 nM | 95.2
sgRNA knockout: sgERN1, 10000 nM | 69.3
sgRNA knockout: sgHSF1, 10 nM | 83.7
sgRNA knockout: sgHSF1, 100 nM | 99
sgRNA knockout: sgHSF1, 1000 nM | 82.2
sgRNA knockout: sgHSF1, 10000 nM | 61.9
sgRNA knockout: sgHSF2, 10 nM | 104
sgRNA knockout: sgHSF2, 100 nM | 97.4
sgRNA knockout: sgHSF2, 1000 nM | 80.1
sgRNA knockout: sgHSF2, 10000 nM | 66.6
sgRNA knockout: sgKEAP1, 10 nM | 114
sgRNA knockout: sgKEAP1, 100 nM | 100
sgRNA knockout: sgKEAP1, 1000 nM | 89.11
sgRNA knockout: sgKEAP1, 10000 nM | 58.5
sgRNA knockout: sgNFE2L2, 10 nM | 93.1
sgRNA knockout: sgNFE2L2, 100 nM | 87.5
sgRNA knockout: sgNFE2L2, 1000 nM | 89.6
sgRNA knockout: sgNFE2L2, 10000 nM | 66.6
sgRNA knockout: sgSLC35F2, 10 nM | 94.5
sgRNA knockout: sgSLC35F2, 100 nM | 101
sgRNA knockout: sgSLC35F2, 1000 nM | 91.8
sgRNA knockout: sgSLC35F2, 10000 nM | 61.9
sgRNA knockout: sgXBP1, 10 nM | 113.7
sgRNA knockout: sgXBP1, 100 nM | 100
sgRNA knockout: sgXBP1, 1000 nM | 84.8
sgRNA knockout: sgXBP1, 10000 nM | 68.5

OCc1ccc(-c2ccc(-c3ccc(CO)s3)o2)s1
Conditions | relative cell number
sgRNA knockout: sgATF3, 10 nM | 114
sgRNA knockout: sgATF3, 100 nM | 68
sgRNA knockout: sgATF3, 1000 nM | 22.6
sgRNA knockout: sgATF3, 10000 nM | 9.04
sgRNA knockout: sgATF4, 10 nM | 121
sgRNA knockout: sgATF4, 100 nM | 77.6
sgRNA knockout: sgATF4, 1000 nM | 24.5
sgRNA knockout: sgATF4, 10000 nM | 8.07
sgRNA knockout: sgATF6, 10 nM | 113
sgRNA knockout: sgATF6, 100 nM | 67.043
sgRNA knockout: sgATF6, 1000 nM | 25.8
sgRNA knockout: sgATF6, 10000 nM | 7.25
sgRNA knockout: sgATG7, 10 nM | 116
sgRNA knockout: sgATG7, 100 nM | 77.6
sgRNA knockout: sgATG7, 1000 nM | 24.9
sgRNA knockout: sgATG7, 10000 nM | 8.55
sgRNA knockout: sgERN1, 10 nM | 95.2
sgRNA knockout: sgERN1, 100 nM | 63
sgRNA knockout: sgERN1, 1000 nM | 22.8
sgRNA knockout: sgERN1, 10000 nM | 8.23
sgRNA knockout: sgHSF1, 10 nM | 89.9
sgRNA knockout: sgHSF1, 100 nM | 67
sgRNA knockout: sgHSF1, 1000 nM | 21.7
sgRNA knockout: sgHSF1, 10000 nM | 7.74
sgRNA knockout: sgHSF2, 10 nM | 114
sgRNA knockout: sgHSF2, 100 nM | 73.2
sgRNA knockout: sgHSF2, 1000 nM | 19.7
sgRNA knockout: sgHSF2, 10000 nM | 6.52
sgRNA knockout: sgKEAP1, 10 nM | 95
sgRNA knockout: sgKEAP1, 100 nM | 62.9
sgRNA knockout: sgKEAP1, 1000 nM | 21.2
sgRNA knockout: sgKEAP1, 10000 nM | 6.81
sgRNA knockout: sgNFE2L2, 10 nM | 135
sgRNA knockout: sgNFE2L2, 100 nM | 94.1
sgRNA knockout: sgNFE2L2, 1000 nM | 25.2
sgRNA knockout: sgNFE2L2, 10000 nM | 12.1
sgRNA knockout: sgSLC35F2, 10 nM | 109
sgRNA knockout: sgSLC35F2, 100 nM | 74.2
sgRNA knockout: sgSLC35F2, 1000 nM | 24
sgRNA knockout: sgSLC35F2, 10000 nM | 7.55
sgRNA knockout: sgXBP1, 10 nM | 110
sgRNA knockout: sgXBP1, 100 nM | 74.6
sgRNA knockout: sgXBP1, 1000 nM | 26
sgRNA knockout: sgXBP1, 10000 nM | 10.1
